Laboratory results taken from patent US20090118285A1, “USE OF KCNQ-OPENERS FOR TREATING OR REDUCING THE SYMPTOMS OF SCHIZOPHRENIA” (H. Lundbeck A/S, priority 2006, published 2009).

These compounds were tested on sensitised behavioural response to amphetamine in mice (assay: Amphetamine sensitisation: sensitised behavioural response to amphetamine in mice). Conditions: ratio of the ED50 for baseline motility and the ED50 for the sensitised response.
Type: in vivo, mouse
In the case of `Cc1cc(N2CCOCC2)cc(C)c1NC(=O)CC1CCCC1`, the Therapeutic index is reported as 2. In the case of `CCOC(=O)Nc1ccc(NCc2ccc(F)cc2)cc1N`, the Therapeutic index is reported as 2. With `Cc1cc(N2CCOCC2)cc(C)c1NC(=O)CC(C)(C)C` the Therapeutic index was >1. `COc1cc(N2CCOCC2)cc(C)c1NC(=O)CC1CCCC1` [2-Cyclopentyl-N-(2-methoxy-6-methyl-4-morpholin-4-yl-phenyl)-acetamide] was tested, and the Therapeutic index was 2. `Cc1nc(N2CCOCC2)nc(C)c1NC(=O)CC1CCCC1` [2-Cyclopentyl-N-(4,6-dimethyl-2-morpholin-4-yl-pyrimidin-5-yl)-acetamide] gave a Therapeutic index of 3. With `CCCCCC(=O)Nc1c(F)cc(N2CCOCC2)cc1F` [Hexanoic acid (2,6-difluoro-4-morpholin-4-yl-phenyl)-amide] the Therapeutic index was >2. With `Cc1cc(N2CCOCC2)nc(C)c1NC(=O)CC(C)(C)C` [N-(2,4-Dimethyl-6-morpholin-4-yl-pyridin-3-yl)-3,3-dimethyl-butyramide] the Therapeutic index was 2. `CCC(=O)Nc1c(Br)cc(N2CCOCC2)cc1C(F)(F)F` [N-(2-Bromo-4-morpholin-4-yl-6-trifluoromethyl-phenyl)-propionamide] was tested, and the Therapeutic index was 2. `Cc1nc(N2CCOCC2)nc(C)c1NC(=O)Cc1ccc(F)cc1` [N-(4,6-Dimethyl-2-morpholin-4-yl-pyrimidin-5-yl)-2-(4-fluoro-henyl)-acetamide] was tested, and the Therapeutic index was 5. `CCOC(=O)Nc1ccc(NCc2c(C)cc(C)cc2C)cc1N` [[2-Amino-4-(2,4,6-trimethyl-benzylamino)-phenyl]-carbamic acid ethyl ester] was tested, and the Therapeutic index was 3.
